Results: patent publication US20210032304A1, “FIBROBLAST GROWTH FACTOR ANALOGS AND USES THEREOF” (University of Florida Research Foundation, Inc., priority 2018, published 2021)
For at least one compound, name, drawing or mass did not settle the structure. Residues, ends and D or L forms follow the SMILES beside them.

By UniProt entry, the sequences of proteins in these tests, tags left out. Residues count along the entry.
UniProt P21802, 22-821: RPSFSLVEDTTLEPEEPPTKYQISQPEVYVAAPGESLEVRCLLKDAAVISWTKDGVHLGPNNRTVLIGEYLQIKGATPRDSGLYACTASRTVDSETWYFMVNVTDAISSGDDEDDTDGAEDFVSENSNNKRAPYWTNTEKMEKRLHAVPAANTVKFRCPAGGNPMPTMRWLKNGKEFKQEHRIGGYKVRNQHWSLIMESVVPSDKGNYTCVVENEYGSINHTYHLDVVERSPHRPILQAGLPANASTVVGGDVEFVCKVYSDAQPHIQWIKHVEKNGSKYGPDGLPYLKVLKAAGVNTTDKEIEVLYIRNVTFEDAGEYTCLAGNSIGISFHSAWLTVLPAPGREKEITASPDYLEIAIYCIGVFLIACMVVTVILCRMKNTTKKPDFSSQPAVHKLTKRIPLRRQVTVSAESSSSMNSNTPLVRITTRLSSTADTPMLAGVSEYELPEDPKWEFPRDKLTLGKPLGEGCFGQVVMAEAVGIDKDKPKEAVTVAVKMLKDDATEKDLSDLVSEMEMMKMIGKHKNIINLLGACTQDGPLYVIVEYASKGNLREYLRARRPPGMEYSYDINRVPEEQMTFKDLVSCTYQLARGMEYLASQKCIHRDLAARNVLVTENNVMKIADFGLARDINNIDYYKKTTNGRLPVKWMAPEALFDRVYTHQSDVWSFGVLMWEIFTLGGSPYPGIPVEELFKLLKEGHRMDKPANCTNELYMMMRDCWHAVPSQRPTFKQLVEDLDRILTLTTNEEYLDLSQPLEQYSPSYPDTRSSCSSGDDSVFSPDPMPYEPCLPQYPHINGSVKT
UniProt P11362, 22-822 isoform P11362-19 limits assumed: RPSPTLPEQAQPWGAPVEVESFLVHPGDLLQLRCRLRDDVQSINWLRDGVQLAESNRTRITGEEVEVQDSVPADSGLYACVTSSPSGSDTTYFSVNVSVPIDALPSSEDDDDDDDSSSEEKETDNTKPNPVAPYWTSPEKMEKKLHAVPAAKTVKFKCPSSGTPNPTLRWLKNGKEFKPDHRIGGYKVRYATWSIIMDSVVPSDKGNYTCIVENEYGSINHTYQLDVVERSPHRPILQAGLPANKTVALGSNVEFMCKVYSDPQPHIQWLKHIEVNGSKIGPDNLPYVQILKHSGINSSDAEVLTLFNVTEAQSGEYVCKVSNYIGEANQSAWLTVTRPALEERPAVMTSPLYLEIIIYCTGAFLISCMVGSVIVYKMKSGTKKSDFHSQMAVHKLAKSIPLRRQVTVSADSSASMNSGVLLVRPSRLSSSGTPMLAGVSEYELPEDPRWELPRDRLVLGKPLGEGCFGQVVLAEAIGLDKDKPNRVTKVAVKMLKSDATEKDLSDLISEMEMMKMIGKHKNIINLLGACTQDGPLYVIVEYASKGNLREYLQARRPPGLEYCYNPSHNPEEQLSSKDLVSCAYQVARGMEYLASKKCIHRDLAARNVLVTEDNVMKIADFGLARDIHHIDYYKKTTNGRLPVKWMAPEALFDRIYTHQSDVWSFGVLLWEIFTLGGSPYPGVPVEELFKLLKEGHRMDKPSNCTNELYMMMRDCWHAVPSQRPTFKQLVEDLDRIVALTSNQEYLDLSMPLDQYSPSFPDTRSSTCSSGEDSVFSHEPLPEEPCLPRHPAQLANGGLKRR
UniProt P11362, 22-822: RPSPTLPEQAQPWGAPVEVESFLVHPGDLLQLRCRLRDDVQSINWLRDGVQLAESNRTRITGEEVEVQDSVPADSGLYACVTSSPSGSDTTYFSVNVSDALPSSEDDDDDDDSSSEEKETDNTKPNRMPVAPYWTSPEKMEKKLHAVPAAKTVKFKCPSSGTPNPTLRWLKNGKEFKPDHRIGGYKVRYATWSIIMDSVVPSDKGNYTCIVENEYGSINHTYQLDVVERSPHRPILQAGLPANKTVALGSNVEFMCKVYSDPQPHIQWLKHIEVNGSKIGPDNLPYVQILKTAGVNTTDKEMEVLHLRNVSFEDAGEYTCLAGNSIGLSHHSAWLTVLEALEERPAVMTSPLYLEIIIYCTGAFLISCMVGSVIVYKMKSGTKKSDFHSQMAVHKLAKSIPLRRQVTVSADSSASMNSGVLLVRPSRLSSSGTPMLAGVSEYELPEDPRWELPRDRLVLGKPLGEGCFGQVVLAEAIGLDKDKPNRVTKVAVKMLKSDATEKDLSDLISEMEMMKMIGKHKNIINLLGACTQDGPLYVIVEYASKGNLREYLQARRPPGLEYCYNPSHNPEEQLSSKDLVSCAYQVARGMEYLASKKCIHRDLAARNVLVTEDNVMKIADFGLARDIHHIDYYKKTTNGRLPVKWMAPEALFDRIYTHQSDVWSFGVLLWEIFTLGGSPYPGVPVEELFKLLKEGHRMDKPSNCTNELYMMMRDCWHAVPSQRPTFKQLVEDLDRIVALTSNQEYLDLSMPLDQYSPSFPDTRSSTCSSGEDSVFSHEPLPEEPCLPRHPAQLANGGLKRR

Experiments:
Assay in all cases: Surface plasmon resonance binding to immobilized FGF receptor (Horiba XelPlex)
Details in all cases: SPR; receptor immobilized at 700 nM; calculated from combined kinetic plots
[1] = molecular target: FGFR-2 alpha IIIc (Homo sapiens, UniProt P21802)
[2] = molecular target: FGFR-1 alpha IIIb (Homo sapiens, UniProt P11362)
[3] = molecular target: FGFR-1 alpha IIIc (Homo sapiens, UniProt P11362)

CC(C)C[C@@H]1NC(=O)[C@H](C)NC(=O)[C@H](C(C)C)NC(=O)[C@H](Cc2ccc(O)cc2)NC(=O)[C@H](Cc2c[nH]c3ccccc23)NC(=O)[C@H](CO)NC(=O)[C@H]([C@@H](C)O)NC(=O)[C@H](Cc2ccc(O)cc2)NC(=O)[C@H](CCCCN)NC(=O)[C@H](CCCNC(=N)N)NC(=O)[C@H](CO)NC(=O)[C@H](CCCNC(=N)N)NC(=O)[C@H](Cc2ccc(O)cc2)NC(=O)[C@@H](N)CSSC[C@@H](C(=O)O)NC(=O)[C@H](CCCNC(=N)N)NC(=O)[C@H](CCCCN)NC1=O [FGF-PT] (HELM PEPTIDE1{C.Y.R.S.R.K.Y.T.S.W.Y.V.A.L.K.R.C}$PEPTIDE1,PEPTIDE1,1:R3-17:R3$$$V2.0; N-terminus and C-terminus assumed)
associative binding constant [1]: 678 nM | associative binding constant [2]: 1.5 µM | associative binding constant [3]: 1 µM
